Experimental data as given in PubChem BioAssay AID588463 (National Center for Advancing Translational Sciences (NCATS), 2011).
Out of some 1,200 compounds screened, about 15 (1%) were called active. Roughly 7% stayed inconclusive and do not appear here. The call rests on the fitted dose curve; in most records, active means well fitted activation curve with a large enough effect; inconclusive means small, poorly fitted or top-dose-only effect; inactive means flat fitted curve, though single readings scatter. The list shows a part of the results.

target: Beta-2 adrenergic receptor (Homo sapiens) (UniProt P07550); assay: qHTS assay of beta-arrestin-biased ligands of beta2-adrenergic receptor: Hit Validation; details: cell-based beta-arrestin recruitment to beta2AR; Potency: activation; series mostly up to 46.1 µM; activation: at the top concentration;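 further: plate controls were DMSO for no effect and maximal isoproterenol or metaproterenol response for full effect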
Outline: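 Tango beta-arrestin recruitment assay in cells at 1500 cells/well in 1% FBS medium, 18 h compound exposure at 37 °C. Luciferase luminescence read 15 min after substrate addition; %activity curves classified by curve class.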

| Structure (SMILES) | activation |
| --- | --- |
| NC(=S)N/N=C/c1ccc(-c2ccccc2)o1 | inactive: -2.68% |
| NNc1nc2c(Cl)cccc2s1 | inactive: -2.97% |
| CCOc1ccccc1OCC(=O)O | inactive: 12.7% |
| CCCc1nc2ccccc2c(C(=O)OCC(=O)NCc2ccc3c(c2)OCO3)c1CC | inactive: -0.454% |
| CCc1ccc(/C=N/n2c(C)cc(C)c(C#N)c2=O)cc1 | inactive: -1.97% |
| N#Cc1cccc2c1-c1ccccc1/C2=N/NC(N)=S | inactive: -3.02% |
| CC1CCC2C(=O)N(c3ccc(C(=O)Oc4cccc5cccnc45)cc3)C(=O)C2C1 (stereo not drawn) | inactive: -0.993% |
| CC1C/C(=N\NC(N)=S)c2cc(Cl)ccc2S1 (stereo not drawn) | inactive: -3.51% |
| C=CCC(CC(O)COCCC)C(=O)NNC(=S)Nc1ccccc1 (stereo not drawn) | inactive: -3.17% |
| CC1CC(C)(C)N(C(=O)CN2CCN(C)CC2)c2ccccc21 (stereo not drawn) | inactive: -2.37% |
| CC1(C)Cc2ccccc2-c2n[nH]c(=S)n21 | inactive: -4.09% |
| O=C1NC(=S)/C(=C\c2ccc(-c3ccccc3Cl)o2)S1 | inactive: -1.98% |
| CS(=O)(=O)Nc1ccccc1C(=O)NCCSCc1ccccc1 | inactive: -0.858% |
| C/C(=N\NC(=O)c1c[nH]c2ccccc12)c1ccc(C)s1 | inactive: -10.2% |
| O=C(Oc1c(-c2ccccc2)c(=O)n2c3c(cccc13)CC2)c1ccccc1 | inactive: -0.833% |
| CCC(C)NC(=O)C1CCN(S(=O)(=O)N2CCC3(CC2)OCCO3)CC1 (stereo not drawn) | inactive: -5.35% |
| NC(=S)N/N=C/c1ccccc1OC(=O)/C=C/c1ccccc1 | inactive: -0.571% |
| Cc1ccc(CNc2ccc(O)cc2)cc1 | inactive: -4.03% |
| O=c1[nH]nc(CNc2ccc(O)cc2)c2ccccc12 | inactive: -3.03% |
| Cc1ccc(C2=NOC(C)(c3nnc(-c4ccc(F)cc4)o3)C2)cc1 (stereo not drawn) | inactive: -4.53% |
| CN(C)CCCN(C(=O)c1ccc(S(=O)(=O)N2CCc3ccccc3C2)cc1)c1nc2ccc(F)cc2s1 | inactive: -4.35% |
| C=CCNC(=S)N/N=C/c1cccc([N+](=O)[O-])c1 | inactive: -2.48% |

A stretch from further up:

| Structure (SMILES) | activation |
| --- | --- |
| C=CCC(CC(O)COCCC)C(=O)NNC(=S)Nc1ccccc1 (stereo not drawn) | inactive: -3.17% |
| CC1CC(C)(C)N(C(=O)CN2CCN(C)CC2)c2ccccc21 (stereo not drawn) | inactive: -2.37% |

Some of these compounds in order of formula weight, low to high.

| Structure (SMILES) | activation |
| --- | --- |
| C=CCNC(=S)N/N=C/c1cccc([N+](=O)[O-])c1 | inactive: -2.48% |
| CCc1ccc(/C=N/n2c(C)cc(C)c(C#N)c2=O)cc1 | inactive: -1.97% |
| NC(=S)N/N=C/c1ccccc1OC(=O)/C=C/c1ccccc1 | inactive: -0.571% |

Further structures:

| Structure (SMILES) | activation |
| --- | --- |
| COc1cccc([C@@H]2Oc3ccc(Br)cc3C(=O)[C@H]2OC(=O)NC2CCCC2)c1 | inactive: 1.55% |
| Cc1cc(C)c2sc(N(CCCN(C)C)C(=O)c3ccc(S(=O)(=O)N4CCc5ccccc5C4)cc3)nc2c1 | inactive: -0.858% |
| O=C(NCc1cccc(Cl)c1)c1ccc(S(=O)(=O)Nc2cccc(C(F)(F)F)c2)cc1 | inactive: -2.28% |
| COc1cccc(C(=O)N/N=C/C(Br)=C/c2ccccc2)c1 | inactive: -3.75% |
| CCOC(=O)CCCc1ccc(/C(C)=N/NC(N)=S)cc1 | inactive: -1.83% |
| CN=C(c1ccc(C)cc1)n1c(=S)nc(-c2ccc(C)cc2)n(C)c1=S | inactive: -2.89% |
| CN(C)/C=C/C(=O)c1ccc(F)cc1 | inactive: -2.41% |
| CC[C@]1(C(=O)OC)[C@H]2C(=O)N(Cc3ccccc3)C(=O)[C@H]2[C@H]2CN(C)C(=NCc3ccccc3)N21 | inactive: -6.13% |
| CCN1C(=NCCc2cccnc2)N[C@@H](c2ccccc2)C(C(=O)OC)=C1C | inactive: -2.42% |
| O=C(N/N=C\C=C\c1ccco1)C1COc2ccccc2O1 (stereo not drawn) | inactive: -2.32% |
| O=c1[nH]c2c(cnn2-c2ccc(Cl)cc2)c(=O)n1-c1cccc(Cl)c1 | inactive: -4.33% |
| N#Cc1cccnc1N1CCN(C(=O)c2cccc3c2C(=O)c2ccc(-c4ccc(Cl)c(C(F)(F)F)c4)cc2S3(=O)=O)CC1 | inactive: -2.09% |
| NC(=S)NN=C(c1ccccc1)c1ccccc1 | inactive: -1.39% |
| CCOC(=O)C1=CC[C@@H](c2cc3ccc(OC)cc3n2C)N(S(=O)(=O)c2ccc(C)cc2)[C@H]1C(=O)OCC | inactive: -2.16% |
| Cc1cc(C)c2c(NC(=S)NC(=O)c3ccccc3)nn(C)c2n1 | inactive: -1.02% |
| Cc1noc(/C=C/c2ccco2)c1S(=O)(=O)N1CCC(C(=O)N2CCc3ccccc3C2)CC1 | inactive: -3.07% |
| CN(C)c1nc(=NCc2ccco2)ss1 | inactive: -4.96% |
| CCCN=C1N(CC)C[C@@H]2[C@@H]3C(=O)N(C)C(=O)[C@@H]3[C@](CC)(C(=O)OC)N12 | inactive: -5.3% |
| O=C(NC(=S)Nc1cccc2c(O)cccc12)c1cccc(Br)c1 | inactive: -4.08% |
| CCOC(=O)NC(=S)Nc1ccc(C(C)(C)C)cc1 | inactive: -2.43% |
| C[C@H](NC(=O)c1ccccc1)C(=O)Nc1nc(-c2ccccn2)cs1 | inactive: -2.75% |
| CC(=O)Nc1ccc(C2=NN(c3ccccc3)C(c3ccccc3)C2)cc1 (stereo not drawn) | inactive: -1.63% |

| Structure (SMILES) | activation |
| --- | --- |
| Cc1ccc(N2CN=C(c3ccccc3)NC2=S)cc1 | inactive: -3.96% |
| COc1ccc(NC(=O)CC2C(=O)N(c3ccc(OC)cc3)C(=S)N2NC(=O)c2cccc(F)c2)cc1 (stereo not drawn) | inactive: 3.31% |
| S=c1[nH]cnc2sc(-c3ccccc3)cc12 | inactive: -1.11% |
| O=C(Oc1c(CN2CCOCC2)cc(Cl)c2cccnc12)c1ccccc1F | inactive: 5.07% |
| NC(=S)N/N=C/c1ccc(-c2ccc([N+](=O)[O-])cc2)o1 | inactive: -2.56% |
| COc1cc(NC(=S)NC(=O)CC(C)C)ccc1NC(=O)c1cc2ccccc2o1 | inactive: -1.71% |
| CC1CCc2c(C(=O)OCC(=O)Nc3cccc(S(=O)(=O)N4CCCCCC4)c3)csc2C1 (stereo not drawn) | inactive: -2.59% |
| C/C(=N\Nc1nc(C)cc(-c2ccccc2)n1)c1ccc(C)o1 | inactive: 0.731% |
| O=C(O)/C(=C\c1ccco1)NC(=O)c1ccccc1 | inactive: -1.83% |
| COc1ccc(C)cc1-n1c(SCC(=O)NCC2CCCO2)nc2c([nH]c3ccccc32)c1=O (stereo not drawn) | inactive: 4.06% |
| Oc1ccc(Cl)cc1/C=C/c1ccc2cccc(O)c2n1 | inactive: 0.904% |
| Cc1cccc2c1N(C(=O)c1ccco1)C(C)(C)c1ssc(=S)c1-2 | inactive: -3.27% |
| COc1c(O)cc(O)c2c(=O)cc(-c3ccccc3)oc12 | inactive: -0.768% |
| CCOc1cc(/C=N/NC(N)=S)cc(Br)c1OCc1ccccc1C | inactive: -2.96% |
| COCCNC(=S)NN=C1CCC(c2ccccc2)CC1 (stereo not drawn) | inactive: -3.79% |
| COc1ccc(C(=O)OCC(=O)c2c(N)n(C)c(=O)n(C)c2=O)cc1OC | inactive: -2.72% |
| CN(C)C(=S)Nc1nc2ccccc2s1 | inactive: -3.48% |
| O=C(c1ccccc1)[C@@H]1[C@@H]2C(=O)N(c3ccc(F)cc3)C(=O)[C@@H]2C2CCCN21 (stereo partly drawn) | inactive: -4.83% |
| O=C(NC(=S)NN1CCCCC1c1cccnc1)c1ccc(Cl)cc1Cl (stereo not drawn) | inactive: -1.87% |
| Cc1cccc(NC(=S)NC(=O)C2CC2)c1 | inactive: -4.23% |
| CCN(Cc1cc(=O)oc2cc(C)ccc12)c1ccccc1 | inactive: -2.2% |
| O=C(CSc1cccc2cccnc12)N1CCCC1 | inactive: -1.64% |

| Structure (SMILES) | activation |
| --- | --- |
| CCOC(=O)C(Sc1cc(-c2ccccc2)nc2ncnn12)C(C)=O (stereo not drawn) | inactive: -1.39% |
| CS(=O)(=O)Nc1ccc(-c2cn3cccnc3n2)cc1 | inactive: -3.46% |
| COc1cccc(Oc2cnc(N)nc2-c2ccc(OC)cc2O)c1 | inactive: -3.32% |
| Cc1cccc(NNC(=S)Nc2c(C)cccc2C)c1 | inactive: -0.528% |
| CCc1ccc(NC(=O)Cc2ccc(-n3cccc3)cc2)cc1 | inactive: -2.72% |
| O=C(CC(=O)Nc1cccc(F)c1)Nc1cccc(F)c1 | inactive: -2.57% |
| CCNC(=S)N/N=C(\C)c1cccc(C(F)(F)F)c1 | inactive: -3.78% |
| COc1ccc(C(=O)C2CCCN(Cc3cnc(N4CCCC4)s3)C2)cc1OC (stereo not drawn) | inactive: -2.07% |
| CCOc1ccc2nc(NC3=NC(c4ccc(OC)cc4)CC(=O)N3)nc(C)c2c1 (stereo not drawn) | inactive: -1.46% |
| S=C(Nc1ccccc1)Nc1nc2ccccc2n1CCOc1ccc(Br)cc1 | inactive: 1.19% |
| Cc1cccc(NC(=S)NC2CCCC2)n1 | inactive: -2.16% |
| Cc1ccc2c(c1)NC(=O)[C@@]1(C)[C@@H](c3ccccc3)[C@H]3COc4ccc(Cl)cc4[C@@H]3N1C2=O | inactive: 4.33% |
| Cc1ccc(Cn2c(/C=C/c3ccco3)nc3ccccc32)cc1 | inactive: -2.82% |
| C#CCOCCOCCOCCNc1nc(N2CCN(C(=O)CCCCCCCCCCNC(=O)Cn3cc(C[C@@H](C)O)nn3)CC2)nc(N2CCN(C(=O)CCCCCCCCCCNC(=O)[C@@H]([C@H](C)O)n3cc(C)nn3)CC2)n1 | inactive: -0.683% |
| Cc1nn(-c2ccccc2)c(Cl)c1/C=N/NC(=O)CNC(=O)c1ccccc1Cl | inactive: -0.0024% |
| Cc1ccc(CN2CCSCC2)c(C)c1 | inactive: -2.68% |
| COCCCNC(=O)CCC(=O)Nc1ccc2nc(N3CCOCC3)cc(C)c2c1 | inactive: 5.18% |
| Cc1ccc(C(=O)N=c2sccn2C)cc1S(=O)(=O)N1CCOCC1 | inactive: -8.33% |
| COc1cc(/C=N/Nc2nc(C)cc(C)n2)cc(OC)c1OC | inactive: -2.25% |
| COCCNC(=S)N/N=C(\C)c1ccc(OC(F)F)cc1 | inactive: -5.08% |
| Cc1ccc(-c2c3c(=O)n(C)c(=O)n(C)c3cn2-n2cnnc2)cc1 | inactive: 5.01% |
| C/C(CS(=O)(=O)c1ccc(Cl)c(Cl)c1)=N/NC(N)=S | inactive: -1.93% |

Part of the list above, reformatted:
Structure (SMILES) | activation
Cc1noc(/C=C/c2ccco2)c1S(=O)(=O)N1CCC(C(=O)N2CCc3ccccc3C2)CC1 | inactive: -3.07%
CCOC(=O)NC(=S)Nc1ccc(C(C)(C)C)cc1 | inactive: -2.43%
